# Data reported in publication PMC9237094 (Scientific Reports, 2022).
# Assay: peptide synthesis
# Conditions: whole synthesis, 220 nm
row,Substance,final HPLC purity
1,PEPTIDE1{H.[dW].A.W.[dF].K.G.G.A.A.V.A.P.A.A.A.R.M}$$$$V2.0,96.55%
2,PEPTIDE1{H.[dW].A.W.[dF].K.[am]}$$$$V2.0,97.67%

# Some peptides are written in HELM: one residue between dots, names in brackets for other building blocks, links after the first $.
